Measured values: patent publication US20110201048A1, “SCREENING METHOD OF THERAPEUTIC AND DIAGNOSTIC AGENTS FOR TNF-ALPHA-INDUCED DISEASES USING REACTIVE OXYGEN SPECIES MODULATOR 1” (KOREA UNIVERSITY RESEARCH AND BUSINESS FOUNDATION, priority 2009, published 2011)
These are yes or no findings as the source states them, for the method shown. In cells and extracts the contact can be indirect. Some binding calls cover weakened binding; strength is not graded here. Sequences can lack the tags named with a protein.

Sequences of proteins named here, by UniProt entry; tags and fusion partners are left off.
UniProt Q07817: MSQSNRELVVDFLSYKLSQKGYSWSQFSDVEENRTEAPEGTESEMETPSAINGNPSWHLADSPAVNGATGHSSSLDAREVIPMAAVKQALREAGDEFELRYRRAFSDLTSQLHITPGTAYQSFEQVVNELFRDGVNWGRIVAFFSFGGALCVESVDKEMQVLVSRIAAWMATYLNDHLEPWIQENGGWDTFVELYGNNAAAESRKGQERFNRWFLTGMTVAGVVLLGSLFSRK

Experiments:
Bcl-XL [1] = molecular target: Bcl-XL (UniProt Q07817); assay: co-immunoprecipitation with anti-Flag antibody, Western blot
Bcl-XL [2] = molecular target: Bcl-XL (UniProt Q07817); assay: co-immunoprecipitation with anti-Flag antibody, Western blot, HEK 293 cells treated with TNF-α
Bcl-XL [3] = molecular target: Bcl-XL (UniProt Q07817); assay: co-immunoprecipitation of Romo1-Flag with anti-Flag antibodies, Western blot, HEK 293 cells treated with TNF-α

Measured: binding

B1: Flag-tagged Romo1 (protein, not shown: small tags and cut ends)
chain: MPVAVGPYGQSQPSCFDRVKMGFVMGCAVGMAAGALFGTFSCLRIGMRGRELMGGIGKTMMQSGGTFGTFMAIGMGIRC
binds: all assays above
